Data on one substance can be found in patent US20100135951A1.

Chains of the proteins cited; added tags and fusions are not shown. Residues count along the entry.
UniProt O00220, residues 24-468: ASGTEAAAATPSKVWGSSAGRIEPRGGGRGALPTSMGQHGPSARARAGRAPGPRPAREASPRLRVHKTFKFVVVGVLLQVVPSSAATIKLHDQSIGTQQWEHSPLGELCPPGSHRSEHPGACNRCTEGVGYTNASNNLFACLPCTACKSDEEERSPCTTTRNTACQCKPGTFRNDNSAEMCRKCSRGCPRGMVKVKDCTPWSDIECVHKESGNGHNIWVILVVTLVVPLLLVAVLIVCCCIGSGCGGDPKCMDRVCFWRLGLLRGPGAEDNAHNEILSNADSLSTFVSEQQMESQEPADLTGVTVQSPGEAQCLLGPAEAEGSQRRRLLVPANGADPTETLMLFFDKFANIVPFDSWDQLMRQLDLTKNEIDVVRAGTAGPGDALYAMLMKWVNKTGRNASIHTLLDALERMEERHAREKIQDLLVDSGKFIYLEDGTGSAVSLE
UniProt Q13158: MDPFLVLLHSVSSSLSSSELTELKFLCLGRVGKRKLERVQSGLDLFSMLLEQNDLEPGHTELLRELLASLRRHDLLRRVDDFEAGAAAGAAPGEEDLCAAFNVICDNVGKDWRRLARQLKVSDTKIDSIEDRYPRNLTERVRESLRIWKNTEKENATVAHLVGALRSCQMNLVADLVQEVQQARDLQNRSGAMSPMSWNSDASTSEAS

For the assay, the target named is TRAIL-R1 (human) (UniProt O00220). The experiment in a line: co-immunoprecipitation from MDA231 cells after 2E12 treatment, Western blot. (Immunoblotting shows a protein as a band on a membrane.)

Results are given in words; binding and its absence hold for the method and conditions named. In cells and extracts the contact can be indirect. Some binding calls cover weakened binding; strength is not graded here.

On to FADD (from UniProt Q13158 1-208), for which the binding result is “binds”.
